Experimental data published in publication PMC6690549.
No constants are given. Whether binding was seen depends on the method and setting. In cells and extracts the contact can be indirect. Some results given as binding are weak or reduced against the parent protein; the word gives no strength.

Chains of the proteins cited; added tags and fusions are not shown. Lines headed by an entry give the natural chain unless they say otherwise; changes in a name come on top.
UniProt Q8TBK6: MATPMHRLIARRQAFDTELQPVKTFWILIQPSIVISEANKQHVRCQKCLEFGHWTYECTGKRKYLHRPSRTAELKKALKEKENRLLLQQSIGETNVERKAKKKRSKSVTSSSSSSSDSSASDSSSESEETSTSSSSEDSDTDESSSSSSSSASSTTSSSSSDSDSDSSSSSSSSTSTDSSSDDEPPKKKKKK
UniProt P78337: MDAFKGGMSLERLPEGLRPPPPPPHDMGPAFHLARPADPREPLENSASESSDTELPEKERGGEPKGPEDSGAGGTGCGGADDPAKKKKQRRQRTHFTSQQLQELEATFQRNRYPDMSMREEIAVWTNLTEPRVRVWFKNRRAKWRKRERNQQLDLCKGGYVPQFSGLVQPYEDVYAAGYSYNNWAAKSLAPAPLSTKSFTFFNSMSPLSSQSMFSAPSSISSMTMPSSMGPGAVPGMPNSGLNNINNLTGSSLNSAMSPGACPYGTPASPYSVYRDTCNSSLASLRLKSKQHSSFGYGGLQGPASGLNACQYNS

What was measured:
[1] = target: FLAG-tagged wild-type ZCCHC10 (human) (UniProt Q8TBK6); test: co-IP; A2058 cells transiently co-transfected with one FLAG-tagged and one non-tagged expression vector, harvested after 24 h; lysis buffer 100 mM Tris HCl pH 7.5, 300 mM NaCl, 2 mM EDTA, 2% Triton X-100; anti-FLAG M2 affinity gel (FLAG Immunoprecipitation Kit); western blotting with anti-PITX1 and anti-ZCCHC10 antibodies; control: empty FLAG vector
[2] = target: FLAG-tagged wild-type PITX1 (paired-like homeodomain 1) (human) (UniProt P78337); test: as above
[3] = target: FLAG-tagged wild-type PITX1 (paired-like homeodomain 1) (human) (UniProt P78337); test: co-IP; U2OS cells expressing FLAG-PITX1; immunoprecipitated with anti-FLAG antibody, immunoblotted with anti-FLAG and anti-ZCCHC10 antibody (endogenous ZCCHC10); control: empty vector cells

Question: For “PITX1, wild type, non-tagged expression vector (from UniProt P78337 1-314)”, which binding [1] is on record?
Answer: Its binding is “binds”.

Question: Which binding [2] does the source give for “ZCCHC10, wild type, non-tagged expression vector (from UniProt Q8TBK6 1-192)” here?
Answer: Its binding is “binds”.

Question: Which binding [3] does the source give for “Zinc finger CCHC domain-containing protein 10 (ZCCHC10), endogenous (from UniProt Q8TBK6-1 1-192)” here?
Answer: Its binding is “binds”.
